For 39 compounds, cell death results are on record in the supplement of paper PMC12872613.

Structures can show the parent of a compound that is named as a salt. This is one part of the list. Rule as the data show it: active = 0.7 or more and inactive = the rest. Most values come without repeats; read them as rough.

For the experiment, the system named is MiaPaCa-2 CLSA-25. The experiment in a line: cell death relative to DMSO vehicle (fraction); higher = more cytotoxic. To be noted: 5 µM; treatment time 48 h; medium cystine 25 µM.
Regarding `COC(=O)[C@H](c1ccccc1Cl)N1CCc2sccc2C1` (racemic) [(±) Clopidogrel hydrogen sulfate], the cell death is inactive: -0.0131.
For the compound `NC(=O)CC[C@H](N)C(=O)O` [L-Glutamine], the cell death is active: 0.867.
The figure for `CCCCCOC1CCC(NC(=O)c2cnn3c(C)cc(C)nc23)CC1` (centres undefined) is inactive: 0.14; for `N=C(N)NN` [Aminoguanidine hydrochloride] it is inactive: 0.273.
To `N#CN=C(NCCCCCCOc1ccc(Cl)cc1)Nc1ccncc1` belongs inactive: 0.685.
The figure for `CC#CCn1c(N2CCC[C@@H](N)C2)nc2c1c(=O)n(Cc1nc(C)c3ccccc3n1)c(=O)n2C` [Linagliptin] is inactive: 0.595; for `CNC(=C[N+](=O)[O-])NCCSCc1ccc(CN(C)C)o1` [Ranitidine Hydrochloride] it is inactive: 0.0851; for `Cc1ccccc1C(C(=O)NC1CCCCC1)N(C(=O)Cn1ccnc1C)c1cccc(F)c1` (centres undefined) it is inactive: 0.0851.
In the case of `O=C(O)C(O)Cc1ccc(O)c(O)c1` (centres undefined) [Sodium Danshensu], the cell death was inactive: 0.0327.
Turning to `C[C@]12C[C@H](O)[C@H]3[C@@H](CCC4=CC(=O)CC[C@@]43C)[C@@H]1CC[C@@H]2C(=O)CO` [Corticosterone], the cell death was inactive: 0.0784.
The figure for `CCOc1ccccc1-n1c(C(C)N2CCN(C(=O)COc3ccc(Cl)cc3)CC2)nc2ccccc2c1=O` (centres undefined) [Erastin] is inactive: 0.552; for `Cc1ccc(S(=O)(=O)NC(=O)NN2CCCCCC2)cc1` [Tolazamide] it is inactive: -0.00669.
To `CC(=O)OCC(=O)[C@@]12OC3(CCCC3)O[C@@H]1C[C@H]1[C@@H]3CCC4=CC(=O)C=C[C@]4(C)[C@@]3(F)[C@@H](O)C[C@@]12C` [Amcinonide] belongs inactive: 0.157.
With `CC(C)C[C@H](NC(=O)[C@H](CCc1ccccc1)NC(=O)CN1CCOCC1)C(=O)N[C@@H](Cc1ccccc1)C(=O)N[C@@H](CC(C)C)C(=O)[C@@]1(C)CO1` [Carfilzomib], the cell death is active: 0.718.
To `OCc1ccccn1` [2-(Hydroxymethyl)pyridine] belongs inactive: 0.0995; to `O=C(Cc1cccc(OC(F)(F)F)c1)Nc1ccc(CCCCc2nnc(NC(=O)Cc3ccccn3)s2)nn1`, inactive: 0.107; to `Cc1ccc(CN(CC(O)COc2cccc3[nH]ccc23)C(C)(C)C)cc1` (centres undefined), inactive: 0.148.
In the case of `O=C(Cc1ccccc1)Nc1nnc(CCSCCc2nnc(NC(=O)Cc3ccccc3)s2)s1`, the cell death is inactive: 0.111.
The figure for `C[C@@H]1O[C@@H](Oc2cc(O)c3c(=O)c(O[C@@H]4O[C@@H](C)[C@H](O)[C@@H](O)[C@H]4O)c(-c4ccc(O)cc4)oc3c2)[C@H](O)[C@H](O)[C@H]1O` [Kaempferitrin] is active: 0.755; for `CCNC(=O)c1noc(-c2cc(Cl)c(O)cc2O)c1-c1ccc(OC)cc1` it is inactive: 0.112; for `N#Cc1cc(-c2n[nH]c(-c3ccncc3)n2)ccn1` [Topiroxostat] it is inactive: 0.0714.
To `N[C@@H](CCC(=O)O)C(=O)O` [glutamic acid] belongs inactive: 0.0329.
To `O=C(O)c1ccc(-c2c[nH]c3ncc(-c4ccccc4)cc23)cc1C1CCCC1` belongs inactive: 0.166.
Take `OC[C@@H](O)[C@@H](O[C@@H]1O[C@H](CO)[C@H](O)[C@H](O)[C@H]1O)[C@H](O)[C@@H](O)CO` [Lactitol monohydrate]: the cell death was inactive: 0.173.
To `COc1ccc(C(NC(=O)c2cnc(-c3cccnn3)[nH]c2=O)c2ccc(OC)cc2)cc1` belongs active: 0.701.
Turning to `COC(=O)C1=CO[C@@H](O)[C@@H]2C(CO)=CC[C@H]12` [Genipin], the cell death was inactive: 0.123.
To `COCCNC(=O)Nc1ccc2nc(-c3cccs3)c(-c3cccs3)nc2c1` [Ac-CoA Synthase Inhibitor1] belongs inactive: 0.142.
To `O=C(Nc1cccnn1)N1CCC(=Cc2cccc(Oc3ccc(C(F)(F)F)cn3)c2)CC1` belongs inactive: 0.0286; to `Cc1c(O)cccc1C(=O)N[C@@H](CSc1ccccc1)[C@H](O)CN1C[C@H]2CCCC[C@H]2C[C@H]1C(=O)NC(C)(C)C` [Nelfinavir Mesylate], inactive: 0.522; to `O=C(c1c2ccccc2cc2ccccc12)N1CCC(N2CCC[C@@H](C(=O)N3CCOCC3)C2)CC1`, inactive: 0.629.
The figure for `O=C(Oc1ccc([N+](=O)[O-])cc1)N1CCN(Cc2cccc(Oc3ccccc3)c2)CC1` is inactive: 0.117.
For the compound `CC(C)(F)C[C@H](N[C@@H](c1ccc(-c2ccc(S(C)(=O)=O)cc2)cc1)C(F)(F)F)C(=O)NC1(C#N)CC1` [Odanacatib], the cell death is inactive: 0.396.
To `N=C(NOCC(O)CN1CCCCC1)c1cccnc1` (centres undefined) belongs inactive: 0.0869.
For the compound `Nc1ncnc2c1ncn2C1OC(COP(=O)(O)O)C(O)C1O` (centres undefined) [Adenosine 5'-monophosphate monohydrate], the cell death is inactive: 0.164.
For the compound `C[C@H]1O[C@H](O[C@H]2[C@H](O)[C@@H](O)[C@@H](O[C@H]3[C@H](O)[C@@H](O)C(O)O[C@@H]3CO)O[C@@H]2CO)[C@H](O)[C@@H](O)[C@@H]1N[C@H]1C=C(CO)[C@@H](O)[C@H](O)[C@H]1O` (some centres undefined) [Acarbose], the cell death is inactive: 0.145.
The figure for `NC(=O)c1ncn([C@@H]2O[C@H](CO)[C@@H](O)[C@H]2O)n1` [Ribavirin] is inactive: 0.198; for `C=CC1=C(C)/C(=C/c2[nH]c(Cc3[nH]c(/C=C4\NC(=O)C(C)=C4C=C)c(C)c3CCC(=O)O)c(CCC(=O)O)c2C)NC1=O` [Bilirubin] it is inactive: 0.12.
The figure for `O=C1C[C@@H](c2ccc(O)cc2)Oc2cc(O)cc(O)c21` [Naringenin] is inactive: 0.0142; for `Oc1cc(Cl)ccc1Oc1ccc(Cl)cc1Cl` [Triclosan] it is active: 0.801.
